According to patent publication US20250345426A1, “METHODS FOR MAKING AND USING THERAPEUTIC CELLS” (THE REGENTS OF THE UNIVERSITY OF CALIFORNIA, priority 2022, published 2025):
At least one structure is not confirmed: it was looked up by name or label, or the drawing left a doubt.

How the values were obtained:
Type in all cases: cell-based, human
Leu16 CAR-T cells [1] = assay: T-cell subtype distribution and Tn/scm enrichment, Leu16 CAR-T cells; conditions: 6 days of pharmacological modulation, relative to vehicle
Excerpt: (§1) FIG. 3A-G. Pharmacological modulation of Leu16 CAR-T cells modestly dampens tonic signaling while enhancing anti-tumor efficacy. (A) Pictorial representation of the correlation between tonic signaling-modulated rituximab CAR-T cells and in vivo anti-tumor efficacy. (B) Pictorial representation of pharmacological modulation strategy aimed to either increase or decrease Leu16 CAR tonic signaling; c-MYC (MYCi975) and SREBP (betulin) inhibition increased tonic signaling whereas mTORC1 (rapamycin) inhibition decreased tonic signaling in rituximab CAR-T cells. (C) % distribution of T-cell subtypes in CAR^+ T cells after 6 days of pharmacological modulation (left) and Tn/scm enrichment (right). […] (F) Tumor signal (in photons/sec/cm2/sr) in individual animals as quantified by bioluminescence imaging. […]
(§2) Antibody staining for flow-cytometry analysis. EGFRt expression was measured with biotinylated cetuximab (Eli Lilly; biotinylated in-house), followed by PE-conjugated streptavidin (Jackson ImmunoResearch #016-110-084). CAR expression was quantified by surface epitope staining using anti-Fc (Alexa Fluor 488, Jackson ImmunoResearch #709-546-098). […] T-cell subtype of CAR-T cells was evaluated by antibody staining for CD45RO (VioBlue®, clone REA611, Miltenyi #130-119-620) and CD62L (APC, clone DREG56, Invitrogen #17-0629-42) after 5-6 days of inhibitor culture (FIG. 1, FIG. 3). […]

rituximab CAR-T cells = assay: TNF-α production without antigen stimulation, intracellular flow cytometry, rituximab CAR-T cells; conditions: vs vehicle (DMSO)
Excerpt: FIG. 1A-G. Pharmacological inhibition of PI3K/AKT pathway modulates antigen-independent CAR-T cell activation. (A) Table of pharmacological inhibitors used during ex vivo expansion of rituximab CAR-T cells (left). Simplified schematic of the PI3K/AKT signaling axis where black arrows represent activation (right). (B) Activation marker expression by CAR^+ T cells in the absence of antigen stimulation after 5 days of pharmacological modulation. Data bars indicate the means of technical triplicates±1 S.D. The bars in FIG. 1B represent data from, untreated, vehicle, CAL-101, AZD5363, Rapamycin, MYCi975, and Betulin, respectively, from left to right. (C) TNF-α production CAR^+ T cells in the absence of antigen stimulation as quantified by intracellular flow cytometry. Data bars indicate the means of technical triplicates±1 S.D. The bars in FIG. 1B and FIG. 1C represent data from, untreated, vehicle, CAL-101, AZD5363, Rapamycin, MYCi975, and Betulin, respectively, from left to right. (D) Proliferation of CAR^+ T cells stained with CellTrace Violet (CTV) dye was assayed after a 4-day culture in the absence of target cells or exogenous cytokines. […] Statistical significance in panels B, C, and D was determined by two-tailed Student's t test with Sidak correction for multiple comparisons. * p<0.05, ** p<0.01, *** p<0.001, n.s. not statistically significant. […]

Leu16 CAR-T cells [2] = assay: Antigen-independent activation and exhaustion marker expression by flow cytometry, Leu16 CAR-T cells; conditions: equivalent concentrations as for rituximab CAR-T cells
Excerpt: as §1, §2

For CO[C@H]1C[C@@H]2CC[C@@H](C)[C@@](O)(O2)C(=O)C(=O)N2CCCC[C@H]2C(=O)O[C@H]([C@H](C)C[C@@H]2CC[C@@H](O)[C@H](OC)C2)CC(=O)[C@H](C)/C=C(\C)[C@@H](O)[C@@H](OC)C(=O)[C@H](C)C[C@H](C)/C=C/C=C/C=C/1C [rapamycin, Rapamycin], the “enrichment of Tn/scm cells” value (Leu16 CAR-T cells [1]) was “increased enrichment”, the “TNF-α production in the absence of antigen stimulation” value (rituximab CAR-T cells) was “increasing” and the tonic signaling (Leu16 CAR-T cells [2]) was “dampened”.
